Consider four molecules from article PMC12097018.

Sequences of proteins named here, by UniProt entry; tags and fusion partners are left off.
UniProt Q09472: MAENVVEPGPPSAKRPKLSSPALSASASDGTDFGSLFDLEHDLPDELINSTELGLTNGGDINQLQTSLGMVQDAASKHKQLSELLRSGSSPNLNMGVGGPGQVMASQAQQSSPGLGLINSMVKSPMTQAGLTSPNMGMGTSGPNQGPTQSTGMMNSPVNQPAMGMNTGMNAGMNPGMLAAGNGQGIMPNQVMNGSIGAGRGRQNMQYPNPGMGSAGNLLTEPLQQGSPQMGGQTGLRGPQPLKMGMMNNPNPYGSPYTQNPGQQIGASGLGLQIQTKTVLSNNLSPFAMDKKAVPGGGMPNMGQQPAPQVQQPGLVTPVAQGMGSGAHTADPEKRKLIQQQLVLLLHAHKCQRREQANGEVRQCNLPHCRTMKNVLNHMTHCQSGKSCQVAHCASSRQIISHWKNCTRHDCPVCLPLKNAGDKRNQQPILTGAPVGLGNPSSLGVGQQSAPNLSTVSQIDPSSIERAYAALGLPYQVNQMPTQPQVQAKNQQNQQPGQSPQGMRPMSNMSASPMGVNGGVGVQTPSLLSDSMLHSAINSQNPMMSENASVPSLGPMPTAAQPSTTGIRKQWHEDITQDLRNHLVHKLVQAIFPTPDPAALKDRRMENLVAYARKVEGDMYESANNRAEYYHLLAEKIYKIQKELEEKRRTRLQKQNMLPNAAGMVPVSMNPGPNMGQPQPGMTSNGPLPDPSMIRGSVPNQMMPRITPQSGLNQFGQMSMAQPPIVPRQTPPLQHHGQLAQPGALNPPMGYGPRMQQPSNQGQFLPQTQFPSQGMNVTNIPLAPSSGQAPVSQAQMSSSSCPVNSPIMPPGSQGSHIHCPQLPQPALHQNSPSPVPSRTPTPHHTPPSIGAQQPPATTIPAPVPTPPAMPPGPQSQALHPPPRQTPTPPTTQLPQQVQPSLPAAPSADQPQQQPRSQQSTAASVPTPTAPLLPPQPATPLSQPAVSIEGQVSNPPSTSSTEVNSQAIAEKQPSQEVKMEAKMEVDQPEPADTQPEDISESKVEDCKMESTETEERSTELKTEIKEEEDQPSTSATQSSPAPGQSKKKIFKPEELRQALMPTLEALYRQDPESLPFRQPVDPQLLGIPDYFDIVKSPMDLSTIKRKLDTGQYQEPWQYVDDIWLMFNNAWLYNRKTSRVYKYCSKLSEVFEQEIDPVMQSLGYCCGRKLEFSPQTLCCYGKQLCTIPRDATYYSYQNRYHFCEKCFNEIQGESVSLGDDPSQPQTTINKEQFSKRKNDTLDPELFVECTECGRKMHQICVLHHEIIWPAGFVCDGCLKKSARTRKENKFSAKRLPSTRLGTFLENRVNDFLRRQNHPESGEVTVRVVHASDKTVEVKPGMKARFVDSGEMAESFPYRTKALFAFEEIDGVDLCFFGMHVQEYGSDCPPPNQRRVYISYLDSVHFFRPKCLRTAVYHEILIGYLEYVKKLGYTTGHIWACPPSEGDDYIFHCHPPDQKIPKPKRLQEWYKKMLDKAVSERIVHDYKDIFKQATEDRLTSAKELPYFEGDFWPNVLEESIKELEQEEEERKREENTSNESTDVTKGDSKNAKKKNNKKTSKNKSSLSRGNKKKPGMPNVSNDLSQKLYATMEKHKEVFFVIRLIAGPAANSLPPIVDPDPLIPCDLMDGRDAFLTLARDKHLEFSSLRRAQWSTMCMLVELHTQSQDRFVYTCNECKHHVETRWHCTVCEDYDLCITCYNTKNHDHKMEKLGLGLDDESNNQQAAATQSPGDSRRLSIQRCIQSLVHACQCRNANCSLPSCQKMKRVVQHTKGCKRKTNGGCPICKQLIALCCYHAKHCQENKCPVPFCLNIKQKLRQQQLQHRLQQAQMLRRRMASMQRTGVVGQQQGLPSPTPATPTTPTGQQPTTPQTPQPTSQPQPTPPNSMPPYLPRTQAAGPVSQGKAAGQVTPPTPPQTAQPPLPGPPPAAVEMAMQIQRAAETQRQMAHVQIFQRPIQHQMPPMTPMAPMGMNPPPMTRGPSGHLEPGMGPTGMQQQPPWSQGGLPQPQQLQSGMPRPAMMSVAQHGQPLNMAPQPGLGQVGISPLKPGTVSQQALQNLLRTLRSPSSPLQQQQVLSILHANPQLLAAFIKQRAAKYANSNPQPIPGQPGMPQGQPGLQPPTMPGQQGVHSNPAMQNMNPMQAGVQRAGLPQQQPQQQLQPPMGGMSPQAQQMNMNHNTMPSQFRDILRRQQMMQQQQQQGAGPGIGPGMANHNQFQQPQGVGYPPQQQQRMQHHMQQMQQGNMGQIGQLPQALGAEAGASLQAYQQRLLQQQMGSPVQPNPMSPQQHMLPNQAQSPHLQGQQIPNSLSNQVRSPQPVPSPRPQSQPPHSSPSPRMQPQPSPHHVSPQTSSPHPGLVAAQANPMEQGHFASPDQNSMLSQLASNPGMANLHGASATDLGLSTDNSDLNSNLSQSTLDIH

No constants are given. Whether binding was seen depends on the method and setting. In cells and extracts the contact can be indirect. Some entries that bind do so weakly or less than the wild type.

The target of assay [1] is T1, SEI1 (SERTA domain-containing protein 1), endogenous in myeloma cells (human (endogenous in ARH-77 or IM-9)) (UniProt Q9UHV2).
T1 sequence: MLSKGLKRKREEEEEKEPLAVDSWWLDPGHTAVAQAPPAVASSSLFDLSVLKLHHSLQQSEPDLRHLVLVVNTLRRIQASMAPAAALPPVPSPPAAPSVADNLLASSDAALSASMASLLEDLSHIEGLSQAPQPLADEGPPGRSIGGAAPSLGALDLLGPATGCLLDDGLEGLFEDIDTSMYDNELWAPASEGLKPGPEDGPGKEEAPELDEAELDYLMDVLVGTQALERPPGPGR
The assay can be described thus: co-IP; endogenous proteins; lysates of ARH-77 or IM-9 cells treated with melphalan or bortezomib; agarose-immobilized anti-SEI1, PAF1, CDC73 or p300 antibody at 4 °C overnight, six washes, immunoblot; IgG as control. A general note: In western blotting, separated proteins are transferred to a membrane and probed.

Assay [2] has as its target T2, SEI1 (full length), expressed from plasmid in HEK293T cells (human) (UniProt Q9UHV2).
T2 sequence: T1 sequence
In words: co-IP; HEK293T cells co-transfected with SEI1 and PAF1, CDC73 or p300 plasmid; agarose-immobilized antibody at 4 °C overnight, six washes, immunoblot.

For assay [3], the target named is T2, SEI1 (full length), expressed from plasmid in HEK293T cells (human). The assay can be described thus: pull-down; HA-tagged protein from transfected HEK293T lysate held on HA beads, then incubated with lysates of cells transfected with CDC73, PAF1 or p300 plasmid; immunoblot; only the target purified.
The target in assay [4] is p300, endogenous in myeloma cells (human (endogenous in ARH-77 or IM-9)) (UniProt Q09472). In words: co-IP; endogenous proteins; lysates of ARH-77 or IM-9 cells treated with melphalan or bortezomib; agarose-immobilized anti-SEI1, PAF1, CDC73 or p300 antibody at 4 °C overnight, six washes, immunoblot; IgG as control.
The target in assay [5] is MYC‐p300, expressed from plasmid in HEK293T cells (UniProt Q09472). The assay can be described thus: co-IP; HEK293T cells co-transfected with SEI1 and PAF1, CDC73 or p300 plasmid; agarose-immobilized antibody at 4 °C overnight, six washes, immunoblot.

On to “p300, endogenous in myeloma cells (from UniProt Q09472 1-2414)”, for which the binding result in assay [1] was “binds”.
Turning to “MYC‐p300, expressed from plasmid in HEK293T cells (from UniProt Q09472 1-2414)”, the binding entry in assay [2] and in assay [3] was “binds” throughout.

B1: SEI1 (SERTA domain-containing protein 1), endogenous in myeloma cells (protein, UniProt Q9UHV2 1-236)
chain: T1 sequence
Regarding B1, the binding result in assay [4] was “binds”.

B2: SEI1 (full length), expressed from plasmid in HEK293T cells (protein, UniProt Q9UHV2 1-236)
chain: T1 sequence
For the molecule B2, in assay [5], the binding result is listed as “binds”.
